# Source: the supplement of paper PMC12819154, “High-throughput peptide-centric local stability assay extends protein–ligand identification to membrane proteins, tissues and bacteria” (Nature Structural & Molecular Biology, 2025)
# By UniProt entry, the sequences of proteins in these tests, tags left out. Where a name states a change or a piece, a line headed by the entry shows the natural chain unless it says otherwise.
# UniProt Q8WVE0: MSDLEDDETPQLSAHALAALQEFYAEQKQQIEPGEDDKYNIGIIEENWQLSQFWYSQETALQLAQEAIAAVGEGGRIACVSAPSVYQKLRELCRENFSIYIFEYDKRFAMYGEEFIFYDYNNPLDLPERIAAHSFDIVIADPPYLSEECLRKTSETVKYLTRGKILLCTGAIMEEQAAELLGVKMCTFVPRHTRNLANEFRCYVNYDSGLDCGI
# UniProt Q8TF20: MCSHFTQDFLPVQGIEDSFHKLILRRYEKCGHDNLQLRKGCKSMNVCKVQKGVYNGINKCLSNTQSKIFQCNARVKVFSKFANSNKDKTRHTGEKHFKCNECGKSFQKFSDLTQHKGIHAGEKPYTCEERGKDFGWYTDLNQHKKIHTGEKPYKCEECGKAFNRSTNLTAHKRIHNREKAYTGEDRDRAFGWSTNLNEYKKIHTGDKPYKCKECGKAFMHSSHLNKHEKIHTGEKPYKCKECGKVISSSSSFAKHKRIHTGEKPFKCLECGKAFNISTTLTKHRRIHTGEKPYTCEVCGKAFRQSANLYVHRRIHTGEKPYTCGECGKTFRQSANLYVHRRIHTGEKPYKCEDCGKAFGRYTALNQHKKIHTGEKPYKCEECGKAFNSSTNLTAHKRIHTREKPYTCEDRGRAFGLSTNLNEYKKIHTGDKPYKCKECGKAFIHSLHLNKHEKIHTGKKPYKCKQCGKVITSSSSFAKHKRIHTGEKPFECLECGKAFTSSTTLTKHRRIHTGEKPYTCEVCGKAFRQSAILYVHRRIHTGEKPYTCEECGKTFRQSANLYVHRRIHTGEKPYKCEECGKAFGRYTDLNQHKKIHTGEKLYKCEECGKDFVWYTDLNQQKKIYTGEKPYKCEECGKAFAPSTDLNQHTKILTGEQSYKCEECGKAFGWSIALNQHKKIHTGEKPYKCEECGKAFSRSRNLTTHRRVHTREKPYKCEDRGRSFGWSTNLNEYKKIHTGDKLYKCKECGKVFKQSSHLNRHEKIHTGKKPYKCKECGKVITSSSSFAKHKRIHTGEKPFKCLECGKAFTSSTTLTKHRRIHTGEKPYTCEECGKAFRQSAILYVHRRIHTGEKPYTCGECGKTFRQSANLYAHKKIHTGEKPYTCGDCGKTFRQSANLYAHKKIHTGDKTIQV
# UniProt Q92599: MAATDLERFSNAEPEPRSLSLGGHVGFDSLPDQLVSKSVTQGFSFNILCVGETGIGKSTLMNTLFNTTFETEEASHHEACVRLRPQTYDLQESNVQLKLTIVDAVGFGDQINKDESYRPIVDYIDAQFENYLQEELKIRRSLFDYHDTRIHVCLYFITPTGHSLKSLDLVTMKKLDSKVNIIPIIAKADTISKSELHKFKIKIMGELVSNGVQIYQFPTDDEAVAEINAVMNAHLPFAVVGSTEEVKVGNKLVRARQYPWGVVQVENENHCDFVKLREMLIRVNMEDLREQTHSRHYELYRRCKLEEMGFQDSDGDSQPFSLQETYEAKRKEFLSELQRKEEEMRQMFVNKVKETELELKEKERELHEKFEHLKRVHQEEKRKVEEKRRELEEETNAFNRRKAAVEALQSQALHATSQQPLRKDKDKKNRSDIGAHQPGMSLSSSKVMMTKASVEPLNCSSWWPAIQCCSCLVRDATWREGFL
# UniProt Q8TEA1: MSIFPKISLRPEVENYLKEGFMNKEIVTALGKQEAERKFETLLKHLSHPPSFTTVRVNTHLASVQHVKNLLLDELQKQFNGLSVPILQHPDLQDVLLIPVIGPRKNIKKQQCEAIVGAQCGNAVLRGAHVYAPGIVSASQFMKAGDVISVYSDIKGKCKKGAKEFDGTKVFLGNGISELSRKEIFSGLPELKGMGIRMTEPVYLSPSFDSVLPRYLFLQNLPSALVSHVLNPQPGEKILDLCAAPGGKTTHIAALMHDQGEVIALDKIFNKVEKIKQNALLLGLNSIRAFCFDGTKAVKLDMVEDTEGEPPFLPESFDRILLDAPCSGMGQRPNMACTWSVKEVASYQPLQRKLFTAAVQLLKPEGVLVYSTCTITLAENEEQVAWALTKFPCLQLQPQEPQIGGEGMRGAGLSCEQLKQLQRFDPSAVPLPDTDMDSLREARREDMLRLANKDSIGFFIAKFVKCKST
# UniProt Q92759: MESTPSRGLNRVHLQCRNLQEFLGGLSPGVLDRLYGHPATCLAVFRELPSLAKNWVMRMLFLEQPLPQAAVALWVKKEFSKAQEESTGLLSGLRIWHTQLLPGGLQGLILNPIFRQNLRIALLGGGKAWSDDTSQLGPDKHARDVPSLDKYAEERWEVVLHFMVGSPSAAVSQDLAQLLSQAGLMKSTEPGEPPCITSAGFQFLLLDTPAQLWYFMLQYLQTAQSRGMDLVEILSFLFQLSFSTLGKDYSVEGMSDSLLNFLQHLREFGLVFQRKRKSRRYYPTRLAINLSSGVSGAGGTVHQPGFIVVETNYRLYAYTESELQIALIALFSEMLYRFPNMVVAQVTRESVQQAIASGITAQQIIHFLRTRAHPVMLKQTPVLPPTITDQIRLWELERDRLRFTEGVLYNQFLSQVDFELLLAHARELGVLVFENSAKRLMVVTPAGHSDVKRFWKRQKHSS
# UniProt Q8WUM0: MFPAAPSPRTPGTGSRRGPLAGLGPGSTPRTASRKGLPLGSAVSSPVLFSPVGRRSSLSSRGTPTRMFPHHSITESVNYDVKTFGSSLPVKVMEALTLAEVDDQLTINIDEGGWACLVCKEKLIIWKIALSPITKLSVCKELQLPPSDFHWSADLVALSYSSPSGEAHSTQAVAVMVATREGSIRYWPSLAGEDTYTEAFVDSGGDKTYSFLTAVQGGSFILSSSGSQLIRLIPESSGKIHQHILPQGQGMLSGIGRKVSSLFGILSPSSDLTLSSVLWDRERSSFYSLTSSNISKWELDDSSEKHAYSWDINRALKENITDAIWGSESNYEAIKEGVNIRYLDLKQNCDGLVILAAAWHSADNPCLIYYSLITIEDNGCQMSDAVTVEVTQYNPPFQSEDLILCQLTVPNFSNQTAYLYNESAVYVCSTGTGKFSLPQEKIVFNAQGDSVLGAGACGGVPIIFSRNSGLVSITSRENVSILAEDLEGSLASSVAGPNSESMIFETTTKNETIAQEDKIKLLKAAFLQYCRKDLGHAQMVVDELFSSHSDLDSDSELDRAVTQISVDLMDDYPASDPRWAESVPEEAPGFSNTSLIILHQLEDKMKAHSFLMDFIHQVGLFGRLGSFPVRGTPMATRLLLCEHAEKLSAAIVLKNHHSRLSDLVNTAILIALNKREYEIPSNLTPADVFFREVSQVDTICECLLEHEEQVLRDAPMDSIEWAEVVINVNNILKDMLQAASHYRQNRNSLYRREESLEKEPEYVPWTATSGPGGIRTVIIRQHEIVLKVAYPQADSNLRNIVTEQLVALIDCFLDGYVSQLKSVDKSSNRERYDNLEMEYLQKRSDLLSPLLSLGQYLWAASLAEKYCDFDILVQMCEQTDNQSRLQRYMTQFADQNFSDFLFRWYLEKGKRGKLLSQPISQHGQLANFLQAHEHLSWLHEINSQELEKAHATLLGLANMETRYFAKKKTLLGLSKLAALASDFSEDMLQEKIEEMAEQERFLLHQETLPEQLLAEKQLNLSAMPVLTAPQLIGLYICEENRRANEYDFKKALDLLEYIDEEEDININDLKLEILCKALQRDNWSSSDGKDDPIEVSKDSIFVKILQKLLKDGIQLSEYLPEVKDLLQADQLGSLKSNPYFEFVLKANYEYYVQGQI
# UniProt Q8TF50: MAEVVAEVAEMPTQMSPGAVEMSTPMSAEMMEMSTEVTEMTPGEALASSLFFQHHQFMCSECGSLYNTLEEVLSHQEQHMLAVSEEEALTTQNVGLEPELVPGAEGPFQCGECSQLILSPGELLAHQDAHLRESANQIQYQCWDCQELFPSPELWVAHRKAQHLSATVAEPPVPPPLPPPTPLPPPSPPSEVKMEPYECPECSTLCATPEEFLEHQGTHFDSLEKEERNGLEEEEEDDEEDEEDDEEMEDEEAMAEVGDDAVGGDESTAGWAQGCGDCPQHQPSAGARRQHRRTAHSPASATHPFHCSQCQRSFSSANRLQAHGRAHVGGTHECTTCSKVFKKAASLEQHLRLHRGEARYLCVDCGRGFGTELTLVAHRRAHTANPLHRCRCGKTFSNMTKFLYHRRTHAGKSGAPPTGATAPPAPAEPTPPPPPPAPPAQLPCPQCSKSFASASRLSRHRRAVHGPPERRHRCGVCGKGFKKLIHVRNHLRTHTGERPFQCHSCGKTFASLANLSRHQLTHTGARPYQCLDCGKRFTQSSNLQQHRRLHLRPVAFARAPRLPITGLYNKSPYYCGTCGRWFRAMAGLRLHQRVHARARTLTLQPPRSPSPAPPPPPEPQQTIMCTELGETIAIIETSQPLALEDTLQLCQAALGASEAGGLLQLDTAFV
# UniProt Q8TCB7: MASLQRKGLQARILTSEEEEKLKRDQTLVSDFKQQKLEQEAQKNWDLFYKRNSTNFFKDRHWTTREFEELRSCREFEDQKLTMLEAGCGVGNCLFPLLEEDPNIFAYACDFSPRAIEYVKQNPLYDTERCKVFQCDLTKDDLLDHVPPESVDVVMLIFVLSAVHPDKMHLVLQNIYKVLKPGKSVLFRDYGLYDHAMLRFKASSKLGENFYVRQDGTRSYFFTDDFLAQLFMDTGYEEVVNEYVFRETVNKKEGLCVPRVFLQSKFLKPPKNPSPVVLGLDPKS
# UniProt Q8TEL6: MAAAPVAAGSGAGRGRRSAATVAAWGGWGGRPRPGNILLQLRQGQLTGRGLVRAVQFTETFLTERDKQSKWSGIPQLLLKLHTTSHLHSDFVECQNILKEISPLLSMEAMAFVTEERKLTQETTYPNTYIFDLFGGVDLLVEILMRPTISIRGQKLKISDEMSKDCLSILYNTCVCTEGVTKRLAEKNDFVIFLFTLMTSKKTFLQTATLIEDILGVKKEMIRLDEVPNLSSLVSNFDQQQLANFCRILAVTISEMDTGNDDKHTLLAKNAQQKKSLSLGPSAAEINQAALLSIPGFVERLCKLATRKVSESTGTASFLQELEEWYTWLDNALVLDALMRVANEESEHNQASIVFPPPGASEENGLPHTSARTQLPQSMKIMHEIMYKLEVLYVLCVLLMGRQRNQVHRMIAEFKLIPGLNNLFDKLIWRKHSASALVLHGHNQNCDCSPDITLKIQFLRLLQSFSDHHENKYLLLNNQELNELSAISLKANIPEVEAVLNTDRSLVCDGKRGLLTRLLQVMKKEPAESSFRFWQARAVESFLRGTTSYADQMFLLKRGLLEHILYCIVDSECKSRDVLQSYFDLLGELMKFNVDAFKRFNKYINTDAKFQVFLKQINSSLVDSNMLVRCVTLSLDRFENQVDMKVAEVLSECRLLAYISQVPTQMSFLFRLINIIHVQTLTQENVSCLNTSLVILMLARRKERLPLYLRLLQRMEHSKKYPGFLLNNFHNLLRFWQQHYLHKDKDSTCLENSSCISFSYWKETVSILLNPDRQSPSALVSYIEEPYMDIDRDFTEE
# UniProt Q8WXK3: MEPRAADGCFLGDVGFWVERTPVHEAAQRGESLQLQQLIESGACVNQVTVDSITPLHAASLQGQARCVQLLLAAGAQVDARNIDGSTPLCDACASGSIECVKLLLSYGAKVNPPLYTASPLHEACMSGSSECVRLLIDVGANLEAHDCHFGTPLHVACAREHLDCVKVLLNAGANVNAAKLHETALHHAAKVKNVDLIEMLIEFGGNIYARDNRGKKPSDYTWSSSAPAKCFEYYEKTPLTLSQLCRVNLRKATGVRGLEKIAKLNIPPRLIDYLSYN
# Some of the results follow. Small differences around the control level are noise.
# Compound: CN[C@@H]1C[C@H]2O[C@@](C)([C@@H]1OC)n1c3ccccc3c3c4c(c5c6ccccc6n2c5c31)C(=O)NC4 [staurosporine]
# Assay: log2 fold change of tryptic peptide abundance, ligand vs vehicle (limited proteolysis) (log2 ratio); higher = more trypsin-susceptible (destabilized)
# Conditions: ligand concentration: 20 uM; sample: K562 cleared lysate; digestion: 4 min, 22 C (HT-PELSA RT4min, Orbitrap Astral)
row,Target,log2 fold change
1,"UniProt Q8WVE0 (peptide sequence: IACVSAPSVYQK, peptide start residue: 77)",0.0675
2,"UniProt Q8TF20 (peptide sequence: SFGWSTNLNEYKK, peptide start residue: 721)",-0.513
3,"LMO7 (peptide sequence: SASVNKEPVSLPGIMR, peptide start residue: 1491) (UniProt Q8WWI1)",0.388
4,"UniProt Q92599 (peptide sequence: ELEEETNAFNR, peptide start residue: 390)",-0.542
5,"NSUN6 (peptide sequence: KFETLLK, peptide start residue: 38) (UniProt Q8TEA1)",0.317
6,"GTF2H4 (peptide sequence: NLQEFLGGLSPGVLDR, peptide start residue: 18) (UniProt Q92759)",0.323
7,"NUP133 (peptide sequence: NETIAQEDKIK, peptide start residue: 510) (UniProt Q8WUM0)",-0.875
8,"ZNF526 (peptide sequence: AHTANPLHR, peptide start residue: 381) (UniProt Q8TF50)",-0.495
9,"METTL6 (peptide sequence: ILTSEEEEK, peptide start residue: 13) (UniProt Q8TCB7)",-0.131
10,"TRPC4AP (peptide sequence: ILAVTISEMDTGNDDKHTLLAK, peptide start residue: 248) (UniProt Q8TEL6)",-0.331
11,"UniProt Q8WXK3 (peptide sequence: TPVHEAAQR, peptide start residue: 21)",0.345

# Nos. 4–5 from above:
row,Target,log2 fold change
4,"UniProt Q92599 (peptide sequence: ELEEETNAFNR, peptide start residue: 390)",-0.542
5,"NSUN6 (peptide sequence: KFETLLK, peptide start residue: 38) (UniProt Q8TEA1)",0.317
